From EP2767286B1, “ORAL PHARMACEUTICAL COMPOSITION FOR THE TREATMENT OF INFLAMMATORY GASTROINTESTINAL DISEASES” (Obshestvo S Ogranichennoj Otvetstvennostju "CytoNIR", priority 2011, dated 2018)
At least one structure is not confirmed: it was looked up by name or label, or the drawing left a doubt.

Tested on: Versuchsmodell der toxischen Hepatitis
Experiment: Hepatoprotective activity in the experimental model of toxic hepatitis (TCM)
Format: in vivo, Ratten der Linie Sprague-Dawley
Settings: Silibinin group; liver histology, Sudan staining, five-point scale
Excerpt: Beispiel 2 Bewertung der hepatoprotektiven Aktivität der erfindungsgemäßen pharmazeutischen Zubereitung bei Verabreichung am Versuchsmodell der toxischen Hepatitis.
Jede Versuchsgruppe zählte 10 Tiere. Die zu untersuchenden Präparate wurden den Ratten in Form von Wasserlösung intragastrisch mit einer atraumatischen Metallsonde eingeführt. Die Referenztiere bekamen Reinwasser verabreicht.
Als Vergleichspräparat wurde bei der Untersuchung der hepatoprotektiven Aktivität das Präparat Silibinin in Kapseln, Fabrikat Rosa-Phytopharm (Bulgarien) verwendet. in der gleichen Menge wie das Volumen der hepatoprotektiven Mittel behandelt. Die hepatoprotektive Aktivität wurde 7 und 14 Tage ab Anfang der Behandlung bewertet. Im Blutserum wurden die Aktivität von Aspartat-Amino-transferase (ASAT), Alanin-Aminotransferase (ALT), alkalische Phosphatase sowie der Cholesterinspiegel, Triglyzeridespiegel ermittelt. […]
Die statistische Datenverarbeitung wurde anhand der handelsüblichen Software Microsoft Excel durchgeführt. Die Unterschiede zwischen den Stichproben wurden anhand des Student t-Tests bewertet. […] Die Angaben sind in der Tabelle 3 aufgeführt. Tabelle 3. […] Tag […]

COc1cc(C2Oc3cc([C@H]4Oc5cc(O)cc(O)c5C(=O)[C@@H]4O)ccc3OC2CO)ccc1O (stereo partly shown) [Silibinin]
Grad der Fettdystrophie: schwachen Grad
